# Measured values as given in the supplement of paper PMC8728848.
# Some of the results follow.
# B1: LysMD3 (Homo sapiens), Q7Z3D4 (protein)
# chain: MAGRHQNRSFPLPGVQSSGQVHAFGNCSDSDILEEDAEVYELRSRGKEKVRRSTSRDRLDDIIVLTKDIQEGDTLNAIALQYCCTVADIKRVNNLISDQDFFALRSIKIPVKKFSSLTETLCPPKGRQTSRHSSVQYSSEQQEILPANDSLAYSDSAGSFLKEVDRDIEQIVKCTDNKRENLNEVVSALTAQQMRFEPDNKNTQRKDPYYGADWGIG
# What was measured:
# Assay in all cases: glycan array binding signal (z-score within array); higher = stronger binding
# Details in all cases: glycan notation: IUPAC condensed, linker removed
# [1] = target: GlcNAc(b1-3)Gal(b1-4)GlcNAc(b1-3)Gal(b1-4)GlcNAc(b1-3)Gal(b1-4)GlcNAc(b1-3)Gal(b1-4)GlcNAc(b1-2)[GlcNAc(b1-3)Gal(b1-4)GlcNAc(b1-3)Gal(b1-4)GlcNAc(b1-3)Gal(b1-4)GlcNAc(b1-3)Gal(b1-4)GlcNAc(b1-6)]Man(a1-6)[GlcNAc(b1-3)Gal(b1-4)GlcNAc(b1-3)Gal(b1-4)GlcNAc(b1-3)Gal(b1-4)GlcNAc(b1-3)Gal(b1-4)GlcNAc(b1-2)Man(a1-3)]Man(b1-4)GlcNAc(b1-4)[Fuc(a1-6)]GlcNAc
# Summary of the method: (§1)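 From the Consortium for Functional Glycomics database, 3228 arrays were curated, keeping only those whose protein sequence was available. Binding is given as a within-array Z-score averaged across arrays sharing a protein sequence and across linkers. Negative Z-scores can be read as non-binding.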
# [2] = target: GlcNAc(b1-3)Gal(b1-4)GlcNAc(b1-3)Gal(b1-4)GlcNAc(b1-3)GalNAc
# Summary of the method: as §1
# [3] = target: GlcNAc(b1-3)Gal(b1-4)GlcNAc(b1-3)GalNAc
# Summary of the method: as §1
# [4] = target: GlcNAc(b1-3)Gal(b1-4)GlcNAc(b1-3)[GlcNAc(b1-3)Gal(b1-4)GlcNAc(b1-3)]GalNAc
# Summary of the method: as §1
# [5] = target: GlcNAc(b1-3)Gal(b1-4)GlcNAc(b1-6)[Gal(b1-3)]GalNAc
# Summary of the method: as §1
# [6] = target: GlcNAc(b1-3)Gal(b1-4)GlcNAc(b1-6)[GlcNAc(b1-3)Gal(b1-3)]GalNAc
# Summary of the method: as §1
# [7] = target: GlcNAc(b1-3)Gal(b1-4)GlcNAc(b1-6)[GlcNAc(b1-3)]Gal(b1-4)GlcNAc
# Summary of the method: as §1
# GlcNAc(b1-3)GalNAc = target: GlcNAc(b1-3)GalNAc
# Summary of the method: as §1
# GlcNAc(b1-3)Man = target: GlcNAc(b1-3)Man
# Summary of the method: as §1
# [8] = target: GlcNAc(b1-3)[GlcNAc(b1-4)][GlcNAc(b1-6)]GlcNAc
# Summary of the method: as §1
# [9] = target: GlcNAc(b1-3)[GlcNAc(b1-6)]Gal(b1-4)GlcNAc
# Summary of the method: as §1
# [10] = target: GlcNAc(b1-3)[GlcNAc(b1-6)]GalNAc
# Summary of the method: as §1
# [11] = target: GlcNAc(b1-4)Gal(b1-4)GlcNAc
# Summary of the method: as §1
# GlcNAc(b1-4)GlcNAc = target: GlcNAc(b1-4)GlcNAc
# Summary of the method: as §1
# [12] = target: GlcNAc(b1-4)GlcNAc(b1-4)GlcNAc
# Summary of the method: as §1
# [13] = target: GlcNAc(b1-4)GlcNAc(b1-4)GlcNAc(b1-4)GlcNAc(b1-4)GlcNAc
# Summary of the method: as §1
# [14] = target: GlcNAc(b1-4)GlcNAc(b1-4)GlcNAc(b1-4)GlcNAc(b1-4)GlcNAc(b1-4)GlcNAc
# Summary of the method: as §1
# [15] = target: GlcNAc(b1-4)[GlcNAc(b1-6)]GalNAc
# Summary of the method: as §1
# [16] = target: GlcNAc(b1-6)Gal(b1-4)GlcNAc
# Summary of the method: as §1
# GlcNAc(b1-6)GalNAc = target: GlcNAc(b1-6)GalNAc
# Summary of the method: as §1
# [17] = target: GlcNAc6S(b1-3)Gal(b1-4)GlcNAc
# Summary of the method: as §1
# Kdn(a2-3)Gal(b1-3)GalNAc = target: Kdn(a2-3)Gal(b1-3)GalNAc
# Summary of the method: as §1
# Kdn(a2-3)Gal(b1-3)GlcNAc = target: Kdn(a2-3)Gal(b1-3)GlcNAc
# Summary of the method: as §1
# Kdn(a2-3)Gal(b1-4)Glc = target: Kdn(a2-3)Gal(b1-4)Glc
# Summary of the method: as §1
# Kdn(a2-3)Gal(b1-4)GlcNAc = target: Kdn(a2-3)Gal(b1-4)GlcNAc
# Summary of the method: as §1
# [18] = target: Kdn(a2-3)Gal(b1-4)[Fuc(a1-3)]GlcNAc
# Summary of the method: as §1
# Kdn(a2-6)Gal(b1-4)GlcNAc = target: Kdn(a2-6)Gal(b1-4)GlcNAc
# Summary of the method: as §1
# [19] = target: Man(a1-2)Man(a1-2)Man(a1-3)Man
# Summary of the method: as §1
# [20] = target: Man(a1-2)Man(a1-2)Man(a1-6)[Man(a1-3)]Man
# Summary of the method: as §1
# Man(a1-2)Man(a1-3)Man = target: Man(a1-2)Man(a1-3)Man
# Summary of the method: as §1
# [21] = target: Man(a1-2)Man(a1-3)[Man(a1-2)Man(a1-6)]Man
# Summary of the method: as §1
# [22] = target: Man(a1-2)Man(a1-3)[Man(a1-2)Man(a1-6)]Man(a1-6)[Man(a1-2)Man(a1-2)Man(a1-3)]Man
# Summary of the method: as §1
# [23] = target: Man(a1-2)Man(a1-3)[Man(a1-2)Man(a1-6)]Man(a1-6)[Man(a1-2)Man(a1-2)Man(a1-3)]Man(b1-4)GlcNAc(b1-4)GlcNAc
# Summary of the method: as §1
# [24] = target: Man(a1-2)Man(a1-3)[Man(a1-6)]Man(a1-6)[Man(a1-2)Man(a1-3)]Man(b1-4)GlcNAc(b1-4)GlcNAc
# Summary of the method: as §1
# [25] = target: Man(a1-2)Man(a1-6)[Man(a1-3)]Man(a1-6)[Man(a1-2)Man(a1-2)Man(a1-3)]Man
# Summary of the method: as §1
# [26] = target: Man(a1-2)Man(a1-6)[Man(a1-3)]Man(a1-6)[Man(a1-2)Man(a1-2)Man(a1-3)]Man(b1-4)GlcNAc(b1-4)GlcNAc
# Summary of the method: as §1
# Man(a1-3)[Man(a1-6)]Man = target: Man(a1-3)[Man(a1-6)]Man
# Summary of the method: as §1
# [27] = target: Man(a1-3)[Man(a1-6)]Man(a1-6)[Man(a1-2)Man(a1-3)]Man(b1-4)GlcNAc(b1-4)GlcNAc
# Summary of the method: as §1
# [28] = target: Man(a1-3)[Man(a1-6)]Man(a1-6)[Man(a1-3)]Man
# Summary of the method: as §1
# [29] = target: Man(a1-3)[Man(a1-6)]Man(a1-6)[Man(a1-3)]Man(b1-4)GlcNAc(b1-4)GlcNAc
# Summary of the method: as §1
# [30] = target: Man(a1-3)[Man(a1-6)]Man(b1-4)GlcNAc(b1-4)GlcNAc
# Summary of the method: as §1
# [31] = target: Man(a1-3)[Man(a1-6)]Man(b1-4)GlcNAc(b1-4)[Fuc(a1-6)]GlcNAc
# Summary of the method: as §1
# Man(a1-6)Man = target: Man(a1-6)Man
# Summary of the method: as §1
# Man(b1-4)GlcNAc = target: Man(b1-4)GlcNAc
# Summary of the method: as §1
# MurNAc(b1-4)GlcNAc = target: MurNAc(b1-4)GlcNAc
# Summary of the method: as §1
binder,measurement,setting,value
B1,glycan array binding signal (z-score),[1],0.289
same,glycan array binding signal (z-score),[2],-1.31
same,glycan array binding signal (z-score),[3],-0.553
same,glycan array binding signal (z-score),[4],-0.683
same,glycan array binding signal (z-score),[5],-0.929
same,glycan array binding signal (z-score),[6],-0.084
same,glycan array binding signal (z-score),[7],0.404
same,glycan array binding signal (z-score),GlcNAc(b1-3)GalNAc,-0.639
same,glycan array binding signal (z-score),GlcNAc(b1-3)Man,0.316
same,glycan array binding signal (z-score),[8],1.06
same,glycan array binding signal (z-score),[9],-0.9
same,glycan array binding signal (z-score),[10],0.094
same,glycan array binding signal (z-score),[11],0.07
same,glycan array binding signal (z-score),GlcNAc(b1-4)GlcNAc,0.164
same,glycan array binding signal (z-score),[12],0.082
same,glycan array binding signal (z-score),[13],-0.593
same,glycan array binding signal (z-score),[14],-0.487
same,glycan array binding signal (z-score),[15],0.46
same,glycan array binding signal (z-score),[16],-0.722
same,glycan array binding signal (z-score),GlcNAc(b1-6)GalNAc,0.427
same,glycan array binding signal (z-score),[17],-0.752
same,glycan array binding signal (z-score),Kdn(a2-3)Gal(b1-3)GalNAc,0.37
same,glycan array binding signal (z-score),Kdn(a2-3)Gal(b1-3)GlcNAc,0.321
same,glycan array binding signal (z-score),Kdn(a2-3)Gal(b1-4)Glc,0.389
same,glycan array binding signal (z-score),Kdn(a2-3)Gal(b1-4)GlcNAc,0.469
same,glycan array binding signal (z-score),[18],-0.234
same,glycan array binding signal (z-score),Kdn(a2-6)Gal(b1-4)GlcNAc,0.967
same,glycan array binding signal (z-score),[19],1.12
same,glycan array binding signal (z-score),[20],0.196
same,glycan array binding signal (z-score),Man(a1-2)Man(a1-3)Man,1.3
same,glycan array binding signal (z-score),[21],-0.06
same,glycan array binding signal (z-score),[22],0.422
same,glycan array binding signal (z-score),[23],0.209
same,glycan array binding signal (z-score),[24],-0.627
same,glycan array binding signal (z-score),[25],0.458
same,glycan array binding signal (z-score),[26],-0.445
same,glycan array binding signal (z-score),Man(a1-3)[Man(a1-6)]Man,0.098
same,glycan array binding signal (z-score),[27],0.207
same,glycan array binding signal (z-score),[28],-1.07
same,glycan array binding signal (z-score),[29],-0.113
same,glycan array binding signal (z-score),[30],-0.343
same,glycan array binding signal (z-score),[31],-0.85
same,glycan array binding signal (z-score),Man(a1-6)Man,-0.963
same,glycan array binding signal (z-score),Man(b1-4)GlcNAc,-0.259
same,glycan array binding signal (z-score),MurNAc(b1-4)GlcNAc,0.119

# 3 neighbouring records out of the list so far:
binder,measurement,setting,value
B1,glycan array binding signal (z-score),[8],1.06
same,glycan array binding signal (z-score),[9],-0.9
same,glycan array binding signal (z-score),[10],0.094
